Laboratory results: the supplement of paper PMC10849652
Some of the results follow.

Sequences of proteins named here, by UniProt entry; tags and fusion partners are left off. A change or cut given only in a name is not applied to a line headed by its entry.
UniProt Q8TCS8: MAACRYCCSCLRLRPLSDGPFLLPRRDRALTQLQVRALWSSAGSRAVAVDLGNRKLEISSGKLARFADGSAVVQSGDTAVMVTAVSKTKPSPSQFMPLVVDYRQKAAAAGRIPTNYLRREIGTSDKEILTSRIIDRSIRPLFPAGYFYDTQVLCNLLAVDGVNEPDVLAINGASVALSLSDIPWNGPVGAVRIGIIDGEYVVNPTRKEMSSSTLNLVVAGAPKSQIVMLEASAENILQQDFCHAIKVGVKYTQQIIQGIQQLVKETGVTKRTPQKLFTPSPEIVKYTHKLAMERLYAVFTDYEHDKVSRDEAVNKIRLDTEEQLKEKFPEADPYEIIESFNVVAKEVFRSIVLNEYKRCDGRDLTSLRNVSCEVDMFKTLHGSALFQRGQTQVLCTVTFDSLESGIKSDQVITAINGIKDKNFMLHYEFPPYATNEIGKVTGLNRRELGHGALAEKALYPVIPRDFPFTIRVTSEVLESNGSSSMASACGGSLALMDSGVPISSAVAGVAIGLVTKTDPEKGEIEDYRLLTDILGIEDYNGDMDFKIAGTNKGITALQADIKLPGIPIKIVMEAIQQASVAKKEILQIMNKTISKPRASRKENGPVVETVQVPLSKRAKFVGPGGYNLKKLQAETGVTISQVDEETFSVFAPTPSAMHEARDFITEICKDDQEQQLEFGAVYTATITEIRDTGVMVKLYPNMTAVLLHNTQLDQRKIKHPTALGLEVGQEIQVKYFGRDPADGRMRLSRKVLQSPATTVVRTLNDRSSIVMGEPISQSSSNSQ
UniProt Q9Y244: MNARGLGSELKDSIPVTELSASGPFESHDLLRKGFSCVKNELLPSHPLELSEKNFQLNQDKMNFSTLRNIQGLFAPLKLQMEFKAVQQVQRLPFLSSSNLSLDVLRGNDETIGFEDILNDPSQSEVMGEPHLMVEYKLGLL
UniProt Q9Y2Y1: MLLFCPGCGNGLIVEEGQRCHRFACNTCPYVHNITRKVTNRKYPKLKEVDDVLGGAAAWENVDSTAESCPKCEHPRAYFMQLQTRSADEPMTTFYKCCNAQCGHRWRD
UniProt O75688: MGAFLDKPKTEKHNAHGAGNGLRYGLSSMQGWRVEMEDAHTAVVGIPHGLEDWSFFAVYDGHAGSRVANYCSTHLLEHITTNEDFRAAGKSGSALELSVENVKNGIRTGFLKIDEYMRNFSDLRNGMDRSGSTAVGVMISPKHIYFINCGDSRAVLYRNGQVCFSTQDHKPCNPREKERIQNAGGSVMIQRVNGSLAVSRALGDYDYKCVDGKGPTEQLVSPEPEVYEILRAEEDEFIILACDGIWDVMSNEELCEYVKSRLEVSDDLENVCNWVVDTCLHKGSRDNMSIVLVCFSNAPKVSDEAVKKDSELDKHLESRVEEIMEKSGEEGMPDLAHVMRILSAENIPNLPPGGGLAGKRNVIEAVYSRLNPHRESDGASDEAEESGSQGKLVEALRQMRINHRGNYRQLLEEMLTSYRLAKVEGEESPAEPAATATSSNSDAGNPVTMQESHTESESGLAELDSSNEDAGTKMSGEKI
UniProt Q99575: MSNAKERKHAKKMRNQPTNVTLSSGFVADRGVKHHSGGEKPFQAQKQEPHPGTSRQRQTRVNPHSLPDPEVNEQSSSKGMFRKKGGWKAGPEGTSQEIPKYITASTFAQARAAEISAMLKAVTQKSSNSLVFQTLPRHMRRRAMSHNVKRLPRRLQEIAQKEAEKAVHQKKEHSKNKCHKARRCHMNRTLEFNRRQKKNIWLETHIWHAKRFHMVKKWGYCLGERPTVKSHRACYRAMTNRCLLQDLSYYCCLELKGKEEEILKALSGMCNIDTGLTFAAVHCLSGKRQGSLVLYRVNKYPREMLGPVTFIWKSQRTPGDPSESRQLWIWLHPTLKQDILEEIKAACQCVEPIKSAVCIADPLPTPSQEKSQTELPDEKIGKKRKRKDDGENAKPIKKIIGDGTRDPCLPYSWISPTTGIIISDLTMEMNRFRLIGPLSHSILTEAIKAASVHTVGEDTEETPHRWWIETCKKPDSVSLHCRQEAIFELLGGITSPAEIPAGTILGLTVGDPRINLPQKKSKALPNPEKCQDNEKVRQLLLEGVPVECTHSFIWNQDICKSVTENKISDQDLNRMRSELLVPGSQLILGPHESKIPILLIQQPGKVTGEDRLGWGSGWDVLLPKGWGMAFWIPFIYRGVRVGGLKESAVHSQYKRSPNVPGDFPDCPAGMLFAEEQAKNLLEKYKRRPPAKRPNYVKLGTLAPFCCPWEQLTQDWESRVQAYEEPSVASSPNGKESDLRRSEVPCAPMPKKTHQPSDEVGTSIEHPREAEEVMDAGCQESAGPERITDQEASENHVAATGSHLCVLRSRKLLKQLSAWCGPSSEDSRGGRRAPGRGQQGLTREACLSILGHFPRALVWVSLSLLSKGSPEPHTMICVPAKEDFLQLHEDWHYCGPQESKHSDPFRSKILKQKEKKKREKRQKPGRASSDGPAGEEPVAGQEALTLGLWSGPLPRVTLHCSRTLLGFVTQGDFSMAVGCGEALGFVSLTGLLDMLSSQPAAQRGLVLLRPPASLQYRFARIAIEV
UniProt O15031: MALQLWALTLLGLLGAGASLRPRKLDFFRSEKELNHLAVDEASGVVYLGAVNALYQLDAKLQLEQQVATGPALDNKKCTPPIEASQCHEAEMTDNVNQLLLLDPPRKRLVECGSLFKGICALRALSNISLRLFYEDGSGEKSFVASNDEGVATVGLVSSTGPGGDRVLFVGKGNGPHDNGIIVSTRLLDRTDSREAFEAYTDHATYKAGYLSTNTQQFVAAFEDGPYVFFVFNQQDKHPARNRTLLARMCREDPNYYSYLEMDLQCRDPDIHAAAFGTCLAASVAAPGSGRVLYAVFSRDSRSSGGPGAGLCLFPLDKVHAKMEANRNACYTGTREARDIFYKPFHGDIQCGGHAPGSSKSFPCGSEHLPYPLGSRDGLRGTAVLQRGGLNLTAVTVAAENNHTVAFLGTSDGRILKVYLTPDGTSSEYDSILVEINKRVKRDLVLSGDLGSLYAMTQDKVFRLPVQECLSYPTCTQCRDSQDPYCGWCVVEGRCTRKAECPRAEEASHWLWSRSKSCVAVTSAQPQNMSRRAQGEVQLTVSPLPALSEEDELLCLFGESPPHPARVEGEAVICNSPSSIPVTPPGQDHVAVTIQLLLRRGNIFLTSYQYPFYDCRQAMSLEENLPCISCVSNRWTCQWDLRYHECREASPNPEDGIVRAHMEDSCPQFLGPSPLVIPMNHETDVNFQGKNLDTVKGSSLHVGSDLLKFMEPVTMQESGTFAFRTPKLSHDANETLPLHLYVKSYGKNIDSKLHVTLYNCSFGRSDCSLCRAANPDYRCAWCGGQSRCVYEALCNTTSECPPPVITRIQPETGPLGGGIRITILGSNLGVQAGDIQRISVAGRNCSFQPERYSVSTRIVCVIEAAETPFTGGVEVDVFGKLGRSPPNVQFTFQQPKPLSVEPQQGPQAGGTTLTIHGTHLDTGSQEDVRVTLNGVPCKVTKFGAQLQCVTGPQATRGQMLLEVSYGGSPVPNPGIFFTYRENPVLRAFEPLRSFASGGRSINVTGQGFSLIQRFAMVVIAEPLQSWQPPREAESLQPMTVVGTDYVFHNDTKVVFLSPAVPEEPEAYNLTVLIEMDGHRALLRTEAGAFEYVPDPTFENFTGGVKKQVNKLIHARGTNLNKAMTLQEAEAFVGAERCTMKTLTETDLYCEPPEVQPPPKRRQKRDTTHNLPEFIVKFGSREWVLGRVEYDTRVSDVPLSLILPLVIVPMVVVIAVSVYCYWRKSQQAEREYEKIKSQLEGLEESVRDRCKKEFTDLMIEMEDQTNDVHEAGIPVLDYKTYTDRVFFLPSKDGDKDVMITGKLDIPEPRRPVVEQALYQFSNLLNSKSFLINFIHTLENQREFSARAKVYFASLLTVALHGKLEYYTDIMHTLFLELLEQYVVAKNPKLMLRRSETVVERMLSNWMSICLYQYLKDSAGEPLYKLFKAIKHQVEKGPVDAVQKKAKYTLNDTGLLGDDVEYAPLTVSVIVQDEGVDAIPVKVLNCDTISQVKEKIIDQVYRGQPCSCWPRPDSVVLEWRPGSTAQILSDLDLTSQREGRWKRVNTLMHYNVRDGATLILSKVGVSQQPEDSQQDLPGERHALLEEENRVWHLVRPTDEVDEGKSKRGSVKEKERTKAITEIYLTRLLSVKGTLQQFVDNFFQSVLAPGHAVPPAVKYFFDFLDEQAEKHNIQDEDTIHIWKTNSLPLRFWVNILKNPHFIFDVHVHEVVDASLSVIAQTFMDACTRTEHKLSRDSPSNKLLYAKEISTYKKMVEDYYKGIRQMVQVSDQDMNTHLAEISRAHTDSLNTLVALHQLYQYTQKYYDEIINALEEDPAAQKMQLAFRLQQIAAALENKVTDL
UniProt Q96CD2: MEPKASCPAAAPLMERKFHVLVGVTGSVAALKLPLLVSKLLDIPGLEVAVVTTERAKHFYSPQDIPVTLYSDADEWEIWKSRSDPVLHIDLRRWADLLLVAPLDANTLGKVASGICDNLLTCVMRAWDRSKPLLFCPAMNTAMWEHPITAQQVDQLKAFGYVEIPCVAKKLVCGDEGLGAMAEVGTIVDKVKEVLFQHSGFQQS
UniProt Q9BY77: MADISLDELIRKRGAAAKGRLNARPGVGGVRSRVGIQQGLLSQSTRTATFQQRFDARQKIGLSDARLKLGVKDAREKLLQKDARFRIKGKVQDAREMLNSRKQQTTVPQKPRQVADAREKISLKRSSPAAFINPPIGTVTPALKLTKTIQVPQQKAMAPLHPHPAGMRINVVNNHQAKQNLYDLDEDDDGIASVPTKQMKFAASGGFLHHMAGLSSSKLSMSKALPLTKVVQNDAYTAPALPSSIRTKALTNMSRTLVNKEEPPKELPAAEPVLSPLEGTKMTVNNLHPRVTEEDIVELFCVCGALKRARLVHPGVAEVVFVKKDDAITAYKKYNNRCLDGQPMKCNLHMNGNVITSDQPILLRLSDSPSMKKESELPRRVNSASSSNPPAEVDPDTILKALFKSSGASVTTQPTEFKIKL
UniProt Q13356: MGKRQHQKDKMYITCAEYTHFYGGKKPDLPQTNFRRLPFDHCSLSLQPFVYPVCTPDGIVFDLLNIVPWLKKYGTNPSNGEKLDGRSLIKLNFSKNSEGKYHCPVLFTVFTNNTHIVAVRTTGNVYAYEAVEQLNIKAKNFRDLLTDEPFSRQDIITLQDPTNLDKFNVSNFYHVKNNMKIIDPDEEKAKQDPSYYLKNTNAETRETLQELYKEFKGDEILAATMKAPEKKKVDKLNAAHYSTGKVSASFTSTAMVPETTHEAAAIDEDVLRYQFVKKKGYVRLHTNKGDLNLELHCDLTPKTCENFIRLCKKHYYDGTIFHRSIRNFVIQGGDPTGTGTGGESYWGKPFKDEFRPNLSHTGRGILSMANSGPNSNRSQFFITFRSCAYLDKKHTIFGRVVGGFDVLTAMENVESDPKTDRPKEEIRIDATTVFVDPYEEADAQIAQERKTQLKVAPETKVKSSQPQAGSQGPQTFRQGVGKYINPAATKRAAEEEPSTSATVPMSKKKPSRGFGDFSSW
UniProt Q99541: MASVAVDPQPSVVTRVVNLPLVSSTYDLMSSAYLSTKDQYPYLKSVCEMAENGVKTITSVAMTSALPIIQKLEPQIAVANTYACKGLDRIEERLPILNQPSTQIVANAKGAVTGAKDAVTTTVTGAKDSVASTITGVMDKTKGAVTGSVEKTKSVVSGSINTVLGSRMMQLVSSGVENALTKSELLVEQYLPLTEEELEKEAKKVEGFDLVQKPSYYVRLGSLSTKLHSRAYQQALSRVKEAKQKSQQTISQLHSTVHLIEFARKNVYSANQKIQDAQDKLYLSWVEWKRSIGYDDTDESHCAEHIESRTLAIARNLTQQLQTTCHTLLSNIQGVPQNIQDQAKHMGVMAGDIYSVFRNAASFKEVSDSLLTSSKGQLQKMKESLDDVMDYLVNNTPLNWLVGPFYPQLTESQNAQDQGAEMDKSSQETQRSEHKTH
UniProt Q15181: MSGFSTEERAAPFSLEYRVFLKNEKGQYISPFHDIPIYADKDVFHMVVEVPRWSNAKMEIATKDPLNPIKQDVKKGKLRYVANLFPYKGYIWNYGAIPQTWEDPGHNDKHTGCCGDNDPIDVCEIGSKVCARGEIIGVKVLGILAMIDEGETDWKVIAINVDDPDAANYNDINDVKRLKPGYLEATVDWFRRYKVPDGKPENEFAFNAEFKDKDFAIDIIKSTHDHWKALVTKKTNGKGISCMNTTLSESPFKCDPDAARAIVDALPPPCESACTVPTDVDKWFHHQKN
UniProt Q969H6: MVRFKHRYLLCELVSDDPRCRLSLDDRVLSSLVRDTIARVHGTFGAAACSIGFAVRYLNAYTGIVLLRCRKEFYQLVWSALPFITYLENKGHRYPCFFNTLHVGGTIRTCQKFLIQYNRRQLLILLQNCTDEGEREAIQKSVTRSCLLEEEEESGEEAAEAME
UniProt P62937, whole entry, looked up: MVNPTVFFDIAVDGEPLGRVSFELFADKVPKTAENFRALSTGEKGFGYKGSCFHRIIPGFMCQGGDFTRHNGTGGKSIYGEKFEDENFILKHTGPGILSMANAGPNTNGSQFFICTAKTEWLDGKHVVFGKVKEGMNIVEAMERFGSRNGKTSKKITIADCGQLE

What was measured:
Assay in all cases: log2 fold change, soluble protein after heating vs DMSO (PISA); higher = thermal stabilisation; K562 cells, 10 uM, 30 min; active = over 0.2 and 3.5 SD of the protein, either way, in both replicates (recomputed)
[1] = compound: CC1=C(C=C(C=C1)NC(=O)C2=CC(=CC=C2)C(C)(C)C#N)NC3=CC4=C(C=C3)N=CN(C4=O)C
Procedure, shortened: (§1)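 K562 cells at 2×10^6 cells/mL were exposed to 10 μM compound for 30 min, then aliquots were heated for 3 min across 48°C-58°C, pooled, and extracted in PBS containing 0.5% NP-40 at 4°C. The supernatant after 21,000xg for 90 min was taken as soluble protein and measured by TMTpro 16plex LC-MS/MS with channel sums equalised. Thermal stability is reported relative to control samples, with values from duplicates. Fold changes are given on a log2 scale.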

[2] = compound: CC1=C(C=C(C=C1)NC(=O)C2=CC(=CC=C2)N(C)C)NC(=O)C3=CC=C(C=C3)O
Procedure, shortened: as §1

[3] = compound: CC1=CC=C(C=C1)SC2=C3C=C(SC3=CN=C2)C(=O)N
Procedure, shortened: as §1

[4] = compound: CC1=NC(=CC=C1)C2=C(N=C(N2)C(C)(C)C)C3=CC4=NC=CN=C4C=C3
Procedure, shortened: as §1

[5] = compound: CCCCN(Cc1ccc(C(=O)NO)cc1)C(=O)Nc1ccccc1 [Nexturastat A]
Procedure, shortened: as §1

[6] = compound: CCCS(=O)(=O)Nc1ccc(F)c(C(=O)c2c[nH]c3ncc(-c4ccc(Cl)cc4)cc23)c1F [vemurafenib]
Procedure, shortened: as §1

[7] = compound: CCCS(=O)(=O)Nc1ccc(F)c(C(=O)c2c[nH]c3ncc(Cl)cc23)c1F
Procedure, shortened: as §1

[8] = compound: CCCc1cc(C)[nH]c(=O)c1CNC(=O)c1cc(-c2ccnc(N3CCN(C)CC3)c2)cc2c1cnn2C(C)C
Procedure, shortened: as §1

[9] = compound: CCN(CC)Cc1ccc2cc(COC(=O)Nc3ccc(C(=O)NO)cc3)ccc2c1 [givinostat]
Procedure, shortened: as §1

[10] = compound: CCN(CCCOc1ccc2c(Nc3cc(CC(=O)Nc4cccc(F)c4)[nH]n3)ncnc2c1)CCOP(=O)(O)O [barasertib]
Procedure, shortened: as §1

Measured: log2 fold change

PNPT1 (UniProt Q8TCS8)
inactive: [1] 0.02 | [2] -0.114 | [3] 0.031 | [4] 0.041 | [5] -0.034 | [6] 0.055 | [7] 0.088 | [8] 0.034 | [9] 0.047 | [10] 0.051

PNKD isoform 2 (UniProt Q8N490)
inactive: [1] -0.067 | [2] -0.011 | [3] -0.044 | [4] -0.027 | [5] 0.031 | [6] 0.036 | [7] -0.029 | [8] -0.022 | [9] -0.033 | [10] 0.041

POMP (UniProt Q9Y244)
inactive: [1] 0.024 | [2] 0.075 | [3] -0.069 | [4] 0.076 | [5] 0.145 | [6] -0.023 | [7] -0.023 | [8] 0.016 | [9] -0.045 | [10] 0.054

POLR3K (UniProt Q9Y2Y1)
inactive: [1] -0.028 | [2] 0.098 | [3] 0 | [4] -0.014 | [5] -0.04 | [6] -0.067 | [7] -0.066 | [8] -0.038 | [9] -0.013 | [10] 0.003

POLR2H (UniProt P52434)
inactive: [1] 0.013 | [2] 0.004 | [3] 0.043 | [4] 0.02 | [5] -0.063 | [6] -0.021 | [7] 0 | [8] -0.018 | [9] 0.002 | [10] 0.032

PNKD isoform 3 (UniProt Q8N490)
inactive: [1] -0.025 | [2] 0.021 | [3] 0.13 | [4] -0.016 | [5] 0.15 | [6] -0.007 | [7] 0.032 | [8] -0.05 | [9] 0.135 | [10] -0.067

POLR2D (UniProt O15514)
inactive: [1] -0.022 | [2] -0.005 | [3] 0.002 | [4] 0.004 | [5] 0.027 | [6] 0.046 | [7] -0.006 | [8] -0.014 | [9] -0.267 | [10] -0.031

PMPCB (UniProt O75439)
inactive: [1] 0.012 | [2] -0.063 | [3] -0.009 | [4] 0.03 | [5] -0.07 | [6] 0.06 | [7] -0.019 | [8] -0.015 | [9] -0.042 | [10] 0.01

PPM1B (UniProt O75688)
inactive: [1] 0.016 | [2] -0.021 | [3] 0 | [4] -0.001 | [5] -0.015 | [6] 0.037 | [7] -0.01 | [8] -0.037 | [9] -0.025 | [10] 0.007

POLR3A (UniProt O14802)
inactive: [1] 0.139 | [2] -0.033 | [3] 0 | [4] -0.007 | [5] 0.183 | [6] 0.087 | [7] 0.11 | [8] 0.082 | [9] 0.058 | [10] 0.015

POP1 (UniProt Q99575)
inactive: [1] 0.03 | [2] -0.001 | [3] 0.004 | [4] -0.02 | [5] -0.011 | [6] -0.004 | [7] 0.021 | [8] 0.018 | [9] -0.009 | [10] -0.042

PLRG1 (UniProt O43660)
inactive: [1] 0.042 | [2] 0.013 | [3] 0.033 | [4] -0.012 | [5] -0.051 | [6] 0.011 | [7] -0.014 | [8] -0.066 | [9] -0.046 | [10] -0.044

PLXNB2 (UniProt O15031)
inactive: [1] -0.013 | [2] 0.021 | [3] 0.014 | [4] -0.047 | [5] -0.011 | [6] 0.059 | [7] -0.004 | [8] 0.053 | [9] 0.042 | [10] 0.084

POLD1 (UniProt P28340)
inactive: [1] -0.083 | [2] -0.028 | [3] 0.018 | [4] 0.022 | [5] 0.02 | [6] 0.033 | [7] 0.071 | [8] 0.006 | [9] 0.021 | [10] 0.005

PPCDC (UniProt Q96CD2)
inactive: [1] 0.005 | [2] -0.082 | [3] 0.034 | [4] 0.025 | [5] 0.087 | [6] 0.002 | [7] 0.001 | [8] -0.144 | [9] 0.057 | [10] 0.057

PON2 (UniProt Q15165)
inactive: [1] 0.036 | [2] -0.004 | [3] 0.043 | [4] -0.032 | [5] 0.036 | [6] 0.012 | [7] -0.018 | [8] -0.026 | [9] -0.017 | [10] -0.003

POLG2 (UniProt Q9UHN1)
inactive: [1] -0.016 | [2] 0.028 | [3] -0.01 | [4] 0.02 | [5] 0 | [6] -0.037 | [7] 0.007 | [8] -0.067 | [9] -0.064 | [10] -0.018

POLR2B (UniProt P30876)
inactive: [1] 0.009 | [2] -0.044 | [3] 0.041 | [4] 0.016 | [5] 0.054 | [6] 0.006 | [7] 0.041 | [8] 0.005 | [9] -0.005 | [10] 0.008

POP4 (UniProt O95707)
inactive: [1] 0.018 | [2] -0.107 | [3] -0.021 | [4] -0.05 | [5] 0.056 | [6] -0.015 | [7] -0.033 | [8] 0.023 | [9] -0.053 | [10] -0.008

POLDIP3 (UniProt Q9BY77)
inactive: [1] -0.011 | [2] -0.01 | [3] -0.027 | [4] 0.004 | [5] -0.065 | [6] -0.024 | [7] -0.051 | [8] -0.032 | [9] 0.062 | [10] -0.065

PPIL2 (UniProt Q13356)
inactive: [1] 0.005 | [2] -0.084 | [3] 0.04 | [4] 0.023 | [5] -0.059 | [6] 0.113 | [7] 0.123 | [8] 0.016 | [9] 0.123 | [10] 0.073

PNPO (UniProt Q9NVS9)
inactive: [1] 0.012 | [2] -0.035 | [3] 0.025 | [4] -0.011 | [5] -0.075 | [6] -0.013 | [7] -0.019 | [8] 0.051 | [9] 0.016 | [10] -0.001

PLIN2 (UniProt Q99541)
inactive: [1] 0.069 | [2] 0.018 | [3] 0.109 | [4] 0.022 | [5] 0.082 | [6] 0.01 | [7] 0.042 | [8] -0.12 | [9] -0.014 | [10] 0.013

POLR3B (UniProt Q9NW08)
inactive: [1] 0.024 | [2] -0.062 | [3] -0.008 | [4] 0.022 | [5] 0.026 | [6] 0.003 | [7] 0.172 | [8] 0.063 | [9] 0.138 | [10] 0.114

POLDIP2 (UniProt Q9Y2S7)
inactive: [1] 0.007 | [2] -0.001 | [3] 0.033 | [4] 0.004 | [5] 0.003 | [6] 0.035 | [7] 0.027 | [8] -0.033 | [9] 0.034 | [10] 0.026

PPA1 (UniProt Q15181)
inactive: [1] 0.073 | [2] 0.01 | [3] 0.007 | [4] 0.046 | [5] -0.081 | [6] 0.001 | [7] 0.037 | [8] 0.082 | [9] -0.043 | [10] 0.007

POP5 (UniProt Q969H6)
inactive: [1] -0.024 | [2] -0.034 | [3] -0.017 | [4] -0.003 | [5] 0.016 | [6] 0.033 | [7] 0.024 | [8] -0.021 | [9] -0.042 | [10] -0.02

PPIP5K2 (UniProt O43314)
inactive: [1] 0.01 | [2] 0.014 | [3] 0.013 | [4] 0.032 | [5] -0.034 | [6] -0.006 | [7] -0.006 | [8] -0.012 | [9] -0.048 | [10] 0.014

PPIA (UniProt P62937)
inactive: [1] 0.019 | [2] -0.036 | [3] 0.01 | [4] 0.039 | [5] -0.08 | [6] 0.001 | [7] 0 | [8] 0 | [9] -0.028 | [10] 0.071

Copied from the results shown (2 entries):
POLR2B (UniProt P30876)
inactive: [1] 0.009 | [2] -0.044 | [3] 0.041 | [4] 0.016 | [5] 0.054 | [6] 0.006 | [7] 0.041 | [8] 0.005 | [9] -0.005 | [10] 0.008

POP4 (UniProt O95707)
inactive: [1] 0.018 | [2] -0.107 | [3] -0.021 | [4] -0.05 | [5] 0.056 | [6] -0.015 | [7] -0.033 | [8] 0.023 | [9] -0.053 | [10] -0.008

Next records follow.

PML (UniProt P29590)
inactive: [1] -0.024 | [2] -0.001 | [3] -0.009 | [4] -0.02 | [5] -0.002 | [6] -0.044 | [7] 0.018 | [8] -0.007 | [9] -0.014 | [10] 0.01
